Compound in the assay: Nc1ncnc2c1ncn2[C@@H]1O[C@H](COP(=O)(O)OP(=O)(O)OP(=O)(O)O)[C@@H](O)[C@H]1O [adenosine triphosphate]
Briefly: NP40-soluble protein abundance relative to vehicle (solubility fold change) (ratio); higher = more soluble protein in presence of ATP. The essentials:
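Each value is a fold change relative to the detergent-processed vehicle, calculated per replicate from vsn-normalised intensities. Jurkat crude lysate received eight concentrations (0.1 to 10 mM) for 10 min at room temperature and 3 min at 37 °C, then was solubilised in 0.8% NP40 with benzonase (60 min, 4 °C). The ultracentrifuged supernatant was TMT-labelled and run by LC-MS/MS in three independent experiments.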

Amino acid sequences for entries named in this document (tags omitted). A change or cut given only in a name is not applied to a line headed by its entry.
UniProt Q6ZVM7: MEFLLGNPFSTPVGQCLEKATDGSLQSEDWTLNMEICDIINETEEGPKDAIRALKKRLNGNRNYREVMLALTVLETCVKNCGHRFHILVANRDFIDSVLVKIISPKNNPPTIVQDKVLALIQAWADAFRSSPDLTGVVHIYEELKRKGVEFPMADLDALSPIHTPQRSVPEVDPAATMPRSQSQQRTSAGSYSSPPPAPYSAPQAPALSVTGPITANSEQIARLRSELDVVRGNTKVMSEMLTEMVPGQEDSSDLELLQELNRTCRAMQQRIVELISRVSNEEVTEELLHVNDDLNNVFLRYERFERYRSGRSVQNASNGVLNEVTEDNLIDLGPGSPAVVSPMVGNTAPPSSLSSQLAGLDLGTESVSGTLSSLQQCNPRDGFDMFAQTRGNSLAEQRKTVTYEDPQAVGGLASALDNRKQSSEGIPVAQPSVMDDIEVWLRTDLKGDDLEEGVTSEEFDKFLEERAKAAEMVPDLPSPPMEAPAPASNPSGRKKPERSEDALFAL
UniProt Q6ZUT1: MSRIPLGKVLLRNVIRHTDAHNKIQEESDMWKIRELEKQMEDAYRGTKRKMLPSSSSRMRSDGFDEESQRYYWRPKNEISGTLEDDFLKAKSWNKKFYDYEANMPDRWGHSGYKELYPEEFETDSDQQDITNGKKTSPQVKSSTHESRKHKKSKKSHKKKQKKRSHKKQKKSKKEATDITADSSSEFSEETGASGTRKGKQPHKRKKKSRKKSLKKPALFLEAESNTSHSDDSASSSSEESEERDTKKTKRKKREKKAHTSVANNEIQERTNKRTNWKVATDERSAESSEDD
UniProt Q7Z6K3: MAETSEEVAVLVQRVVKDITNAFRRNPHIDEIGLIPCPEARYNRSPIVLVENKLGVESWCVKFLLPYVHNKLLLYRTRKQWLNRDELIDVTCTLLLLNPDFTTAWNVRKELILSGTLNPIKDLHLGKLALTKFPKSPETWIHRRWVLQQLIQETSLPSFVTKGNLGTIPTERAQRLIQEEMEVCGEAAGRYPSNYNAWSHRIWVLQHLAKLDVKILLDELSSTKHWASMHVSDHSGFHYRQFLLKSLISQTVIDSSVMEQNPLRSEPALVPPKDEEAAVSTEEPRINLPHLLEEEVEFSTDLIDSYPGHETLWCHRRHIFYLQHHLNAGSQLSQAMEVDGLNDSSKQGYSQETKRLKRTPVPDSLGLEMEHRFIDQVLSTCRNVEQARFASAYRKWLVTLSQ
UniProt Q7LDG7: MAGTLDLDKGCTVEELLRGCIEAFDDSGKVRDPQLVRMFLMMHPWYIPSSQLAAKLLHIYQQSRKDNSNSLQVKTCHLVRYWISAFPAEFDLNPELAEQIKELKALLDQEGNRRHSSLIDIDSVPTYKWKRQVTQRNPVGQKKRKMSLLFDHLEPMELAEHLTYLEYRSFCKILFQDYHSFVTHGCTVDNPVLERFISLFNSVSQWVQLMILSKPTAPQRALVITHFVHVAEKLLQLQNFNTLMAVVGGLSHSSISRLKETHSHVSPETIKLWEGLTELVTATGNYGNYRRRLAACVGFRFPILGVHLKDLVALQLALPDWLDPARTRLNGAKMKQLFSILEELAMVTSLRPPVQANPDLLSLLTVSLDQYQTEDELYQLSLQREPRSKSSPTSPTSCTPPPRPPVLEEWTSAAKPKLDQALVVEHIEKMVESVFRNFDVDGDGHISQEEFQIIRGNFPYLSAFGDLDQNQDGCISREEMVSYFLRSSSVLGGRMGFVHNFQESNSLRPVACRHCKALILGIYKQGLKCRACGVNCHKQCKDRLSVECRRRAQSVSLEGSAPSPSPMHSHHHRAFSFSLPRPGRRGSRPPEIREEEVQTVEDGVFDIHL
UniProt Q7Z6I8: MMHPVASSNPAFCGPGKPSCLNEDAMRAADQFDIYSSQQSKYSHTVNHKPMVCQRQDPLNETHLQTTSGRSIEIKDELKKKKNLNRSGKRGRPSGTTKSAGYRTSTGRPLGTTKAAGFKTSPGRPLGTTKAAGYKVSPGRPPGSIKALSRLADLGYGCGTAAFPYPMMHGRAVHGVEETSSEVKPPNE
UniProt Q7Z7L1: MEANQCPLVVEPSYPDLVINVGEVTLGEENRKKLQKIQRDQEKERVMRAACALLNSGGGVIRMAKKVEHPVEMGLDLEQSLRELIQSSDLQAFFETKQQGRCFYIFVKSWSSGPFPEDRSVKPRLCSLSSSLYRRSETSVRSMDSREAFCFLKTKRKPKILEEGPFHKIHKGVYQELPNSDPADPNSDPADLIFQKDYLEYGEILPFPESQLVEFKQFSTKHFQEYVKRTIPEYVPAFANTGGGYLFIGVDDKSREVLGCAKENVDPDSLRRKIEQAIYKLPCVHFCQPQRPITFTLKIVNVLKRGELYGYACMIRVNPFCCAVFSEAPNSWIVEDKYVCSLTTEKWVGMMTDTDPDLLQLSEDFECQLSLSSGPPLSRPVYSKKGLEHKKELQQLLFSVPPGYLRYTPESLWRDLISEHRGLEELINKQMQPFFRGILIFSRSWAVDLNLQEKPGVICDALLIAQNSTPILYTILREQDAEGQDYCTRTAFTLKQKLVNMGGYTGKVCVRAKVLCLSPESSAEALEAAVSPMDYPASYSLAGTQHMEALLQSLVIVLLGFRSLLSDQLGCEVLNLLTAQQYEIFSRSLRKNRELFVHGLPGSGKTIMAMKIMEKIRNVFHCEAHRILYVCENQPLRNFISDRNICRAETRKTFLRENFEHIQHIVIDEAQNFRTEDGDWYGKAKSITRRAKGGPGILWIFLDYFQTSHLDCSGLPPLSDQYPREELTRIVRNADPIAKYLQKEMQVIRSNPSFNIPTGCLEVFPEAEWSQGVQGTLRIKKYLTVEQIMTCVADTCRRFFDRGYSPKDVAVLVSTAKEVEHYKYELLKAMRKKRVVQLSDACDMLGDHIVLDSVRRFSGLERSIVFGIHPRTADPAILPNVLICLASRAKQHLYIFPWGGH
UniProt Q86TI0: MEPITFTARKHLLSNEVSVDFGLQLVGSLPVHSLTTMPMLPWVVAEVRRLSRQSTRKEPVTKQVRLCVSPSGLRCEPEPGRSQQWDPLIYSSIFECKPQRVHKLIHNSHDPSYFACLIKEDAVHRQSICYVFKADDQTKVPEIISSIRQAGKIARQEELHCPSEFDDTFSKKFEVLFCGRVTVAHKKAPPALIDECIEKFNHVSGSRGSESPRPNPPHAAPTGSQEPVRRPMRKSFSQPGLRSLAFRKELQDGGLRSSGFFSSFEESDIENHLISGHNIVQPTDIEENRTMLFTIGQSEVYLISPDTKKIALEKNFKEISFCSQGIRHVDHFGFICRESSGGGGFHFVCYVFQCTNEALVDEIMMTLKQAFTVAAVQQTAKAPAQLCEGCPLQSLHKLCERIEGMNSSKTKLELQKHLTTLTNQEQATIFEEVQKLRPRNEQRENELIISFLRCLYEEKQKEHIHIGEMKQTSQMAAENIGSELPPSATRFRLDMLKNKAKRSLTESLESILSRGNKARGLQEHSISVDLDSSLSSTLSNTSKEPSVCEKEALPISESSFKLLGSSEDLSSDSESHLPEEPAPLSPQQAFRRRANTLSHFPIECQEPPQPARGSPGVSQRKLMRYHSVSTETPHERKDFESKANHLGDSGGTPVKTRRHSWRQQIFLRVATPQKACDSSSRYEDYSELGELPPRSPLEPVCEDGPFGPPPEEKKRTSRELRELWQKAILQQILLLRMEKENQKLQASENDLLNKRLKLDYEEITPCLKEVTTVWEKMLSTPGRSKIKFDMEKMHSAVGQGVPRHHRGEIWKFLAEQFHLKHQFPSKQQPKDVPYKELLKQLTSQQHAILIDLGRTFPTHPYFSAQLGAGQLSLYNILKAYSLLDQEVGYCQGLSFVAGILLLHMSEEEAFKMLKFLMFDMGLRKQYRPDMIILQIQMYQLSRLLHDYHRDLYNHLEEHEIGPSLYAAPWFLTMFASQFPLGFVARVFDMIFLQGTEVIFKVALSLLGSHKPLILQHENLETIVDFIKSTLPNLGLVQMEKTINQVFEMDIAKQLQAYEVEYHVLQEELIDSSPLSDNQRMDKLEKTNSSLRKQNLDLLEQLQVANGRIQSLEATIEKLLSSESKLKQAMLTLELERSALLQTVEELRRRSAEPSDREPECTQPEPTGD
UniProt Q86V85: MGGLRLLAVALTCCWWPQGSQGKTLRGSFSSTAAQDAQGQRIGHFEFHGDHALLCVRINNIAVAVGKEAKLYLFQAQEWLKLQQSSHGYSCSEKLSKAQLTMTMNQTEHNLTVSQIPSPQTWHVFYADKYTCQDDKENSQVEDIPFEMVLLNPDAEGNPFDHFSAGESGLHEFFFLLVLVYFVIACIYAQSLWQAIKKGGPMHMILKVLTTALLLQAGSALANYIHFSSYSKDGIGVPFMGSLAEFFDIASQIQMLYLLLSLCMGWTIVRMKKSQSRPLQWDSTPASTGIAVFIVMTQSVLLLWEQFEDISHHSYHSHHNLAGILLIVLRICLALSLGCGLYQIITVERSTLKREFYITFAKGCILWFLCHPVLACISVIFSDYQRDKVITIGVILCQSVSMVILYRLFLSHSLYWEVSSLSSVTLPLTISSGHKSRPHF
UniProt Q86VX2, whole entry: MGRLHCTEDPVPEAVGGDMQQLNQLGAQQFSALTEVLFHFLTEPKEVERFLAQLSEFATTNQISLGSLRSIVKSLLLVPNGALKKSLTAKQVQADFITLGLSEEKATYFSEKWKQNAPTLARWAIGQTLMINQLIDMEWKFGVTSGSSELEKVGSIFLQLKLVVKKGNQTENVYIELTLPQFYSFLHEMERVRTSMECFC
UniProt Q86V21: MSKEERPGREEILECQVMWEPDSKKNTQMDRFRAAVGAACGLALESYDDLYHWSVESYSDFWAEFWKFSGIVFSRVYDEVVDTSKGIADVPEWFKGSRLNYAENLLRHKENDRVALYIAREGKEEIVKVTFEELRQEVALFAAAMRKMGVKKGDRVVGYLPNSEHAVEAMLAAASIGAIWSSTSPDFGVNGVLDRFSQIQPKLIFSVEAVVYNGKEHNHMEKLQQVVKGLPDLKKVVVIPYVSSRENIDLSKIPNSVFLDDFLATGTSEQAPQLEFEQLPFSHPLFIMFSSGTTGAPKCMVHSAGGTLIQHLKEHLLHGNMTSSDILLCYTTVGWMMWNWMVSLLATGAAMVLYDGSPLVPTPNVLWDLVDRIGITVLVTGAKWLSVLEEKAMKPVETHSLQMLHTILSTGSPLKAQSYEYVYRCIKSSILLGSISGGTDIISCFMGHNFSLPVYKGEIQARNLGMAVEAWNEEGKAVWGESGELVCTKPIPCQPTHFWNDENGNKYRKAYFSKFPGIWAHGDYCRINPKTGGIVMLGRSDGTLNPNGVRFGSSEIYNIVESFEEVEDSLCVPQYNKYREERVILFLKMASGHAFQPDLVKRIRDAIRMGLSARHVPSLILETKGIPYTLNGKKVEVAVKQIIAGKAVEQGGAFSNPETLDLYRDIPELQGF
UniProt Q86WR0: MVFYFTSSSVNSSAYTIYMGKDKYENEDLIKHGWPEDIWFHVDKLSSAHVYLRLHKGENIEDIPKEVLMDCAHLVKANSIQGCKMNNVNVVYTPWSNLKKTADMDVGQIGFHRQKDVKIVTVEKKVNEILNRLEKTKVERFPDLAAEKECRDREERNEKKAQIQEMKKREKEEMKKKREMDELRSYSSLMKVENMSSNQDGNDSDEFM
UniProt Q7L775: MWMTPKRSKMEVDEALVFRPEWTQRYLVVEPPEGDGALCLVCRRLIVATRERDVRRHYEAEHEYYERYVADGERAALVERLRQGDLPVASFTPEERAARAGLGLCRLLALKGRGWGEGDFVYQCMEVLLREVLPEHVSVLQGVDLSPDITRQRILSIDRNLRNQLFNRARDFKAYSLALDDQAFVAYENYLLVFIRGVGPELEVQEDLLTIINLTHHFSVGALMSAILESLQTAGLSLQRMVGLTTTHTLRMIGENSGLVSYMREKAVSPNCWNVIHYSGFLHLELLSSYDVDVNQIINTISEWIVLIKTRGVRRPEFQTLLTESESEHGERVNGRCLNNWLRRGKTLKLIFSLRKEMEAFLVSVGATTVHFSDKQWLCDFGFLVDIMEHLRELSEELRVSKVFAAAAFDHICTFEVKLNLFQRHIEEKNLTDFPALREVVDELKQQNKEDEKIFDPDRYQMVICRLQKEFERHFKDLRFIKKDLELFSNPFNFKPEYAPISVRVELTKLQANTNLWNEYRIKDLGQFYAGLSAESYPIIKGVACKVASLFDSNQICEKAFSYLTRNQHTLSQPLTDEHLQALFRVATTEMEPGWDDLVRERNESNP
UniProt Q70Z53: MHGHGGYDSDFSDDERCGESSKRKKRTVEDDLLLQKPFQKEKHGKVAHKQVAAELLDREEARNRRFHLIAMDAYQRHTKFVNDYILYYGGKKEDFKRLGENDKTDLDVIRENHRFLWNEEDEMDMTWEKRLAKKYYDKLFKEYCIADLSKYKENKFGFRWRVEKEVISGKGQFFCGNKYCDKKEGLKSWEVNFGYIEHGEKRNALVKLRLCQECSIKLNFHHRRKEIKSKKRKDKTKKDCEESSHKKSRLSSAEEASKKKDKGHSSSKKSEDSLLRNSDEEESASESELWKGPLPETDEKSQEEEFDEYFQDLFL

Among the data in the supplement of paper PMC6411743 are NP40-soluble protein abundance values, retold here.

± gives the standard deviation of the averaged measurements. The list shows a part of the results, in another mix than the full data. Small differences around the control level are noise.

As for UniProt Q6ZVM7 and related entries, the NP40-soluble protein abundance is, setting by setting: (concentration: 0.1mM) 0.996 ± 0.1; (concentration: 0.5mM) 0.926 ± 0.029.

With LYSMD2 (UniProt Q8IV50), the NP40-soluble protein abundance runs as follows: (concentration: 0.1mM) 0.952 ± 0.012; (concentration: 0.5mM) 0.946 ± 0.12.

As to UniProt Q6ZUT1 and related entries, the NP40-soluble protein abundance came to 0.958 ± 0.04 (concentration: 0.1mM) and 0.864 ± 0.12 (concentration: 0.5mM).

Consider “UniProt Q7Z3D6-2|H0YB09 and related entries”, for which the NP40-soluble protein abundance was found to be 1.04 ± 0.053 (concentration: 0.1mM) and 1.05 ± 0.077 (concentration: 0.5mM).

As for UniProt Q71RC2 and related entries, the NP40-soluble protein abundance reads like this: (concentration: 0.1mM) 1.03 ± 0.083; (concentration: 0.5mM) 1.05 ± 0.053.

As for UniProt Q7Z6K3 and related entries, the NP40-soluble protein abundance (concentration: 0.1mM) was 1.02 ± 0.034 and the NP40-soluble protein abundance (concentration: 0.5mM) was found to be 1.02 ± 0.097.

On to UniProt Q7LDG7 and related entries, for which the NP40-soluble protein abundance runs as follows: (concentration: 0.1mM) 0.983 ± 0.049; (concentration: 0.5mM) 1.01 ± 0.071.

Consider C5orf24 (UniProt Q7Z6I8), for which the NP40-soluble protein abundance (concentration: 0.1mM) was 0.955 ± 0.017 and the NP40-soluble protein abundance (concentration: 0.5mM) is 0.927 ± 0.037.

As for UniProt Q7Z7A1 and related entries, the NP40-soluble protein abundance runs as follows: (concentration: 0.1mM) 0.946 ± 0.12; (concentration: 0.5mM) 0.987 ± 0.084.

Take RBBP6 (UniProt Q7Z6E9): the NP40-soluble protein abundance is, setting by setting: (concentration: 0.1mM) 1.03 ± 0.029; (concentration: 0.5mM) 1.13 ± 0.071.

Turning to SLFN11 (UniProt Q7Z7L1), the NP40-soluble protein abundance reads like this: (concentration: 0.1mM) 1.09 ± 0.064; (concentration: 0.5mM) 1.09 ± 0.074.

For TMED8 (UniProt Q6PL24), the NP40-soluble protein abundance reads like this: (concentration: 0.1mM) 1.01 ± 0.027; (concentration: 0.5mM) 1.02 ± 0.043.

Regarding UniProt Q86TI0 and related entries, the NP40-soluble protein abundance runs as follows: (concentration: 0.1mM) 1.032 ± 0.0083; (concentration: 0.5mM) 1.033 ± 0.0094.

On to GPR180 (UniProt Q86V85), for which the NP40-soluble protein abundance reads like this: (concentration: 0.1mM) 0.91 ± 0.12; (concentration: 0.5mM) 1.08 ± 0.014.

Take PRPF39 (UniProt Q86UA1): the NP40-soluble protein abundance is, setting by setting: (concentration: 0.1mM) 1.06 ± 0.043; (concentration: 0.5mM) 1.004 ± 0.0043.

As for UniProt Q712K3, the NP40-soluble protein abundance runs as follows: (concentration: 0.1mM) 0.952 ± 0.03; (concentration: 0.5mM) 0.941 ± 0.045.

Turning to MEPCE (UniProt Q7L2J0), the NP40-soluble protein abundance (concentration: 0.1mM) was 1.03 ± 0.077 and the NP40-soluble protein abundance (concentration: 0.5mM) amounted to 1.06 ± 0.057.

Regarding UniProt Q86X55 and related entries, the NP40-soluble protein abundance runs as follows: (concentration: 0.1mM) 1.06 ± 0.098; (concentration: 0.5mM) 1.02 ± 0.054.

As for UniProt Q6ZXV5 and related entries, the NP40-soluble protein abundance came out at 0.937 ± 0.1 (concentration: 0.1mM) and 0.945 ± 0.08 (concentration: 0.5mM).

Regarding UniProt Q86VX2 and related entries, the NP40-soluble protein abundance was 0.996 ± 0.051 (concentration: 0.1mM) and 0.887 ± 0.018 (concentration: 0.5mM).

In the case of AACS (UniProt Q86V21), the NP40-soluble protein abundance (concentration: 0.1mM) amounted to 1.04 ± 0.038 and the NP40-soluble protein abundance (concentration: 0.5mM) was found to be 1.01 ± 0.095.

With CCDC25 (UniProt Q86WR0), the NP40-soluble protein abundance runs as follows: (concentration: 0.1mM) 1.02 ± 0.039; (concentration: 0.5mM) 1.02 ± 0.068.

As for UniProt Q86TP1 and related entries, the NP40-soluble protein abundance turned out to be 1.03 ± 0.016 (concentration: 0.1mM) and 0.976 ± 0.036 (concentration: 0.5mM).

UniProt Q7Z7C8 and related entries: the NP40-soluble protein abundance by setting is: (concentration: 0.1mM) 0.985 ± 0.081; (concentration: 0.5mM) 1.01 ± 0.034.

As for UniProt Q71F23, the NP40-soluble protein abundance runs as follows: (concentration: 0.1mM) 0.981 ± 0.024; (concentration: 0.5mM) 0.909 ± 0.19.

For the target UniProt Q6Y7W6 and related entries, the NP40-soluble protein abundance was found to be 0.994 ± 0.023 (concentration: 0.1mM); 1.05 ± 0.051 (concentration: 0.5mM); 1.05 ± 0.076 (concentration: 1mM); 1.08 ± 0.05 (concentration: 2mM); 1.1 ± 0.051 (concentration: 4mM); 1.18 ± 0.068 (concentration: 6mM). For the same target, the NP40-soluble protein abundance stood at 1.12 ± 0.029 (concentration: 8mM) and 1.16 ± 0.045 (concentration: 10mM).

Consider EPM2AIP1 (UniProt Q7L775), for which the NP40-soluble protein abundance came to 1.03 ± 0.095 (concentration: 0.1mM) and 0.987 ± 0.1 (concentration: 0.5mM).

Consider UniProt Q86X95, for which the NP40-soluble protein abundance by setting is: (concentration: 0.1mM) 1.02 ± 0.016; (concentration: 0.5mM) 1 ± 0.045; (concentration: 1mM) 0.964 ± 0.013; (concentration: 2mM) 0.935 ± 0.061; (concentration: 4mM) 0.9643 ± 0.008; (concentration: 6mM) 0.949 ± 0.026. Moreover, the NP40-soluble protein abundance amounted to 0.935 ± 0.0096 (concentration: 8mM) and 0.913 ± 0.02 (concentration: 10mM).

On to UniProt Q70Z53, for which the NP40-soluble protein abundance (concentration: 0.1mM) amounted to 0.988 ± 0.046; the NP40-soluble protein abundance (concentration: 0.5mM) was found to be 0.99 ± 0.015; the NP40-soluble protein abundance (concentration: 1mM) was determined as 0.931 ± 0.015; the NP40-soluble protein abundance (concentration: 2mM) amounted to 0.927 ± 0.028; the NP40-soluble protein abundance (concentration: 4mM) stood at 0.919 ± 0.011; the NP40-soluble protein abundance (concentration: 6mM) turned out to be 0.922 ± 0.066. For the same target, the NP40-soluble protein abundance is, setting by setting: (concentration: 8mM) 0.933 ± 0.058; (concentration: 10mM) 0.936 ± 0.013.

For UniProt Q7LBC6, the NP40-soluble protein abundance by setting is: (concentration: 0.1mM) 1.02 ± 0.02; (concentration: 0.5mM) 1.02 ± 0.06.

Turning to LARP1 (UniProt Q6PKG0), the NP40-soluble protein abundance (concentration: 0.1mM) was 0.93 ± 0.054; the NP40-soluble protein abundance (concentration: 0.5mM) was 0.898 ± 0.038; the NP40-soluble protein abundance (concentration: 1mM) was found to be 0.939 ± 0.062; the NP40-soluble protein abundance (concentration: 2mM) amounted to 0.988 ± 0.065; the NP40-soluble protein abundance (concentration: 4mM) stood at 1.06 ± 0.059; the NP40-soluble protein abundance (concentration: 6mM) is 1.2 ± 0.069. For the same target, the NP40-soluble protein abundance reads like this: (concentration: 8mM) 1.22 ± 0.043; (concentration: 10mM) 1.33 ± 0.065.
